In US7700553B2, “Selective inhibition of NF-κB activation by peptides designed to disrupt nemo oligomerization” (priority 2003, dated 2010):

Test system: LPS-induced NF-κB activation in 70Z/3-C3 cells
Test: NF-κB inhibition assay, second more stringent procedure (peptide washed out, 24 h growth before LPS)
Type: cell-based, murine
Details: 10 μM peptide
Excerpt: FIG. 4: Specific Inhibition of NF-κB Activation in Response to LPS Depends on a Few Mutations in the Hydrophobic Core of CC2 and LZ Coiled-Coils Left panels show a helical wheel diagram of CC2 (A) and LZ (B) peptides. The view is from the top the molecule. The (a) through (g) positions, which are an essential feature of coiled coil sequence (Vinson, 2002, Mol. Cell. Biol.) represent sequential positions in each peptide sequence. The first (a) and fourth (d) positions that are generally occupied by hydrophobic amino acids constitute the hydrophobic core for parallel as well as antiparallel-coiled coils. […] NF-κB activity was measured using the β-galactosidase assay. […]
FIG. 5: Inhibition of NF-κB Activation by the LZ Peptide Occurs Through the Formation of Specific Coiled-Coil Strands. […] NF-κB activity was measured using the β-galactosidase assay. […]

For “B-CRQIKIWFQNRRMKWKKSKGMQRMKQLEDKVEELLSKNYHLENEVARLKKLVGER (N-terminal BODIPY label) [BODIPY-Ant-GCN4 (WT), control coiled-coil peptide that mimics the GCN4 leucine zipper, antennapedia fusion, reference compound]”, the “effect on LPS-induced NF-κB activation (in words)” value was “no ability to inhibit NF-κB activation”.
